Assay results: patent US20250011427A1 (CONCEPT TO MEDICINE BIOTECH, published 2025)
Results are given in words; binding and its absence hold for the method and conditions named. Some binding calls cover weakened binding; strength is not graded here.

By UniProt entry, the sequences of proteins in these tests, tags left out. Where a name states a change or a piece, a line headed by the entry shows the natural chain unless it says otherwise.
UniProt P07766: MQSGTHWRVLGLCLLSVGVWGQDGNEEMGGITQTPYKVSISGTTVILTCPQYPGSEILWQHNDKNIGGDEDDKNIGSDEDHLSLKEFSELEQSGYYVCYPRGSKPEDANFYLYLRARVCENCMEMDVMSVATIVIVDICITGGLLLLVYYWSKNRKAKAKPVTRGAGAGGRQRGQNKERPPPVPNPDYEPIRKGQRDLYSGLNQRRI
UniProt P04234: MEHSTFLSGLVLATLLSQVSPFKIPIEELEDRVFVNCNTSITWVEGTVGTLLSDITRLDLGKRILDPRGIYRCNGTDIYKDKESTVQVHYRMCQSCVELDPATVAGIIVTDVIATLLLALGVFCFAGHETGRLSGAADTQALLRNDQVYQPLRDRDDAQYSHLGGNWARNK

Molecular target: human CD3 protein (human) (UniProt P07766+P04234)
Test: ELISA

Binder	binding
155A9B1 chimeric antibody (antibody, V domains shown) VH: QVQLKESGPGLVQPSQTLSLTCTVSGFSLTSYNVHWVRQPPGKGLEWMGRVRYNGDTSYNSALKSRLSISRDTSKNQAFLKMNSLQIDDTGTYYCTRGPYGGSSEPLFDYWGQGVMVTVSS VL: DIKMTQSPSFLSASVGDRVTINCKASQNINKYLNWFQQKLGEAPRLLIYTTNNLQTGIPSRFSGSGSGTDFTLTISSLQPEDVATYFCLQHNSGYTFGAGTKLELK	binds
Hu153A6B1-1 (antibody, V domains shown) VH: EVQLQESGPGLVKPSETLSLTCTVSGGSISSYNIHWIRQPPGKGLEWIGRIRYNGDTSYNSALKSRVTISVDTSKNQFSLKLSSVTAADTAVYYCARGPYGGSREPLFDYWGQGTMVTVSS VL: DIQMTQSPSSLSASVGDRVTITCKTSQNINKYLNWYQQKPGKAPKLLIYTTNNLQTGVPSRFSGSGSGTDFTLTISSLQPEDFATYYCLQHGSGYTFGQGTKLEIK	binds
Hu153A6B1-2 (antibody, V domains shown) VH: EVQLQESGPGLVKPSETLSLTCTVSGGSISSYNIHWVRQPPGKGLEWIGRIRYNGDTSYNSALKSRVTISRDTSKNQFSLKLSSVTAADTAVYYCARGPYGGSREPLFDYWGQGTMVTVSS VL: DIQMTQSPSSLSASVGDRVTITCKTSQNINKYLNWYQQKPGKAPKLLIYTTNNLQTGVPSRFSGSGSGTDFTLTISSLQPEDFATYYCLQHGSGYTFGQGTKLEIK	binds
Hu153A6B1-3 (antibody, V domains shown) VH: EVQLQESGPGLVKPSETLSLTCTVSGGSISSYNIHWVRQPPGKGLEWMGRIRYNGDTSYNSALKSRLTISRDTSKNQFSLKLSSVTAADTAVYYCARGPYGGSREPLFDYWGQGTMVTVSS VL: DIQMTQSPSSLSASVGDRVTITCKTSQNINKYLNWYQQKPGKAPKLLIYTTNNLQTGVPSRFSGSGSGTDFTLTISSLQPEDFATYYCLQHGSGYTFGQGTKLEIK	binds
Hu153A6B1-4 (antibody, V domains shown) VH: EVQLQESGPGLVKPSETLSLTCTVSGGSISSYNIHWVRQPPGKGLEWMGRIRYNGDTSYNSALKSRLTISRDTSKNQFSLKLSSVTAADTAVYYCTRGPYGGSREPLFDYWGQGTMVTVSS VL: DIQMTQSPSSLSASVGDRVTITCKTSQNINKYLNWYQQKPGKAPKLLIYTTNNLQTGVPSRFSGSGSGTDFTLTISSLQPEDFATYYCLQHGSGYTFGQGTKLEIK	binds
Hu153A6B1-5 (antibody, V domains shown) VH: EVQLQESGPGLVKPSETLSLTCTVSGFSISSYNIHWVRQPPGKGLEWMGRIRYNGDTSYNSALKSRLTISRDTSKNQVSLKLSSVTAADTAVYYCTRGPYGGSREPLFDYWGQGTMVTVSS VL: DIQMTQSPSSLSASVGDRVTITCKTSQNINKYLNWYQQKPGKAPKLLIYTTNNLQTGVPSRFSGSGSGTDFTLTISSLQPEDFATYYCLQHGSGYTFGQGTKLEIK	binds
Hu153A6B1-6 (antibody, V domains shown) VH: EVQLQESGPGLVKPSETLSLTCTVSGFSLTSYNIHWVRQPPGKGLEWMGRIRYNGDTSYNSALKSRLTISRDTSKNQVSLKLSSVTAADTAVYYCTRGPYGGSREPLFDYWGQGTMVTVSS VL: DIQMTQSPSSLSASVGDRVTITCKTSQNINKYLNWYQQKPGKAPKLLIYTTNNLQTGVPSRFSGSGSGTDFTLTISSLQPEDFATYYCLQHGSGYTFGQGTKLEIK	binds
Hu153A6B1-7 (antibody, V domains shown) VH: EVQLQESGPGLVKPSETLSLTCTVSGGSISSYNIHWIRQPPGKGLEWIGRIRYNGDTSYNSALKSRVTISVDTSKNQFSLKLSSVTAADTAVYYCARGPYGGSREPLFDYWGQGTMVTVSS VL: DIQMTQSPSSLSASVGDRVTITCKTSQNINKYLNWFQQKPGKAPKLLIYTTNNLQTGIPSRFSGSGSGTDFTLTISSLQPEDFATYYCLQHGSGYTFGQGTKLEIK	binds
Hu153A6B1-8 (antibody, V domains shown) VH: EVQLQESGPGLVKPSETLSLTCTVSGGSISSYNIHWVRQPPGKGLEWIGRIRYNGDTSYNSALKSRVTISRDTSKNQFSLKLSSVTAADTAVYYCARGPYGGSREPLFDYWGQGTMVTVSS VL: DIQMTQSPSSLSASVGDRVTITCKTSQNINKYLNWFQQKPGKAPKLLIYTTNNLQTGIPSRFSGSGSGTDFTLTISSLQPEDFATYYCLQHGSGYTFGQGTKLEIK	binds
Hu153A6B1-9 (antibody, V domains shown) VH: EVQLQESGPGLVKPSETLSLTCTVSGGSISSYNIHWVRQPPGKGLEWMGRIRYNGDTSYNSALKSRLTISRDTSKNQFSLKLSSVTAADTAVYYCARGPYGGSREPLFDYWGQGTMVTVSS VL: DIQMTQSPSSLSASVGDRVTITCKTSQNINKYLNWFQQKPGKAPKLLIYTTNNLQTGIPSRFSGSGSGTDFTLTISSLQPEDFATYYCLQHGSGYTFGQGTKLEIK	binds
Hu153A6B1-10 (antibody, V domains shown) VH: EVQLQESGPGLVKPSETLSLTCTVSGGSISSYNIHWVRQPPGKGLEWMGRIRYNGDTSYNSALKSRLTISRDTSKNQFSLKLSSVTAADTAVYYCTRGPYGGSREPLFDYWGQGTMVTVSS VL: DIQMTQSPSSLSASVGDRVTITCKTSQNINKYLNWFQQKPGKAPKLLIYTTNNLQTGIPSRFSGSGSGTDFTLTISSLQPEDFATYYCLQHGSGYTFGQGTKLEIK	binds
Hu153A6B1-11 (antibody, V domains shown) VH: EVQLQESGPGLVKPSETLSLTCTVSGFSISSYNIHWVRQPPGKGLEWMGRIRYNGDTSYNSALKSRLTISRDTSKNQVSLKLSSVTAADTAVYYCTRGPYGGSREPLFDYWGQGTMVTVSS VL: DIQMTQSPSSLSASVGDRVTITCKTSQNINKYLNWFQQKPGKAPKLLIYTTNNLQTGIPSRFSGSGSGTDFTLTISSLQPEDFATYYCLQHGSGYTFGQGTKLEIK	binds
Hu153A6B1-12 (antibody, V domains shown) VH: EVQLQESGPGLVKPSETLSLTCTVSGFSLTSYNIHWVRQPPGKGLEWMGRIRYNGDTSYNSALKSRLTISRDTSKNQVSLKLSSVTAADTAVYYCTRGPYGGSREPLFDYWGQGTMVTVSS VL: DIQMTQSPSSLSASVGDRVTITCKTSQNINKYLNWFQQKPGKAPKLLIYTTNNLQTGIPSRFSGSGSGTDFTLTISSLQPEDFATYYCLQHGSGYTFGQGTKLEIK	binds
Hu153A6B1-13 (antibody, V domains shown) VH: EVQLQESGPGLVKPSETLSLTCTVSGGSISSYNIHWIRQPPGKGLEWIGRIRYNGDTSYNSALKSRVTISVDTSKNQFSLKLSSVTAADTAVYYCARGPYGGSREPLFDYWGQGTMVTVSS VL: DIQMTQSPSSLSASVGDRVTITCKTSQNINKYLNWFQQKPGKAPKLLIYTTNNLQTGIPSRFSGSGSGTDFTLTISSLQPEDFATYFCLQHGSGYTFGQGTKLEIK	binds
Hu153A6B1-14 (antibody, V domains shown) VH: EVQLQESGPGLVKPSETLSLTCTVSGGSISSYNIHWVRQPPGKGLEWIGRIRYNGDTSYNSALKSRVTISRDTSKNQFSLKLSSVTAADTAVYYCARGPYGGSREPLFDYWGQGTMVTVSS VL: DIQMTQSPSSLSASVGDRVTITCKTSQNINKYLNWFQQKPGKAPKLLIYTTNNLQTGIPSRFSGSGSGTDFTLTISSLQPEDFATYFCLQHGSGYTFGQGTKLEIK	binds
Hu153A6B1-15 (antibody, V domains shown) VH: EVQLQESGPGLVKPSETLSLTCTVSGGSISSYNIHWVRQPPGKGLEWMGRIRYNGDTSYNSALKSRLTISRDTSKNQFSLKLSSVTAADTAVYYCARGPYGGSREPLFDYWGQGTMVTVSS VL: DIQMTQSPSSLSASVGDRVTITCKTSQNINKYLNWFQQKPGKAPKLLIYTTNNLQTGIPSRFSGSGSGTDFTLTISSLQPEDFATYFCLQHGSGYTFGQGTKLEIK	binds
Hu153A6B1-16 (antibody, V domains shown) VH: EVQLQESGPGLVKPSETLSLTCTVSGGSISSYNIHWVRQPPGKGLEWMGRIRYNGDTSYNSALKSRLTISRDTSKNQFSLKLSSVTAADTAVYYCTRGPYGGSREPLFDYWGQGTMVTVSS VL: DIQMTQSPSSLSASVGDRVTITCKTSQNINKYLNWFQQKPGKAPKLLIYTTNNLQTGIPSRFSGSGSGTDFTLTISSLQPEDFATYFCLQHGSGYTFGQGTKLEIK	binds
Hu153A6B1-17 (antibody, V domains shown) VH: EVQLQESGPGLVKPSETLSLTCTVSGFSISSYNIHWVRQPPGKGLEWMGRIRYNGDTSYNSALKSRLTISRDTSKNQVSLKLSSVTAADTAVYYCTRGPYGGSREPLFDYWGQGTMVTVSS VL: DIQMTQSPSSLSASVGDRVTITCKTSQNINKYLNWFQQKPGKAPKLLIYTTNNLQTGIPSRFSGSGSGTDFTLTISSLQPEDFATYFCLQHGSGYTFGQGTKLEIK	binds
Hu153A6B1-18 (antibody, V domains shown) VH: EVQLQESGPGLVKPSETLSLTCTVSGFSLTSYNIHWVRQPPGKGLEWMGRIRYNGDTSYNSALKSRLTISRDTSKNQVSLKLSSVTAADTAVYYCTRGPYGGSREPLFDYWGQGTMVTVSS VL: DIQMTQSPSSLSASVGDRVTITCKTSQNINKYLNWFQQKPGKAPKLLIYTTNNLQTGIPSRFSGSGSGTDFTLTISSLQPEDFATYFCLQHGSGYTFGQGTKLEIK	binds
192A7B9 chimeric antibody (antibody, V domains shown) VH: QVQLKESGPGLVQPSQTLSLNCTVSGFSLTSYNVHWVRQPPGKGLEWMGRMRYNGDTSYNSALKSRLSISRDTSKNQVFLKMNSLQTDDTGTYYCTRGPRGGYYSALFDYWGQGVMVTVSS VL: DIQMTQSPSFLSASVGDRVTINCKASQNINRYLNWYQQKLGDAPKVLISIANSLQTGIPSRFSGSGSGTDFTLTISSLQPEDVATYFCLQHNSWYTFGAGTKLELK	binds
Hu155A9B1-1 (antibody, V domains shown) VH: EVQLQESGPGLVKPSETLSLTCTVSGGSISSYNVHWIRQPPGKGLEWIGRVRYNGDTSYNSALKSRVTISVDTSKNQFSLKLSSVTAADTAVYYCARGPYGGSSEPLFDYWGQGTMVTVSS VL: DIQMTQSPSSLSASVGDRVTITCKASQNINKYLNWYQQKPGKAPRLLIYTTNNLQTGVPSRFSGSGSGTDFTLTISSLQPEDFATYYCLQHNSGYTFGQGTKLEIK	binds
Hu155A9B1-2 (antibody, V domains shown) VH: EVQLQESGPGLVKPSETLSLTCTVSGGSISSYNVHWVRQPPGKGLEWIGRVRYNGDTSYNSALKSRVTISRDTSKNQFSLKLSSVTAADTAVYYCARGPYGGSSEPLFDYWGQGTMVTVSS VL: DIQMTQSPSSLSASVGDRVTITCKASQNINKYLNWYQQKPGKAPRLLIYTTNNLQTGVPSRFSGSGSGTDFTLTISSLQPEDFATYYCLQHNSGYTFGQGTKLEIK	binds
